The chains behind the UniProt entries cited, without tags or fusion partners.
UniProt P68831: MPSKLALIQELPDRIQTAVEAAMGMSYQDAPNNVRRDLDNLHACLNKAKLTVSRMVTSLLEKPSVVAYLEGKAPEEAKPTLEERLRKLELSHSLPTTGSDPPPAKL

According to paper PMC11708023:

Target: V5-tagged B2 of Flock House virus (FHV) (Flock House virus) (UniProt P68831)
Assay: affinity purification with mass spectrometry; S2 cells transfected with V5-tagged B2 for 48 h; lysate in RIPA buffer immunoprecipitated with anti-V5 antibody on protein A agarose; on-bead trypsin digest, LC-MS/MS; control empty vector / anti-IgG

| Binder | binding |
| --- | --- |
| CG9213 (protein, UniProt Q9VXT5 1-687) MSYIQFESGREKDKARQELREAREAMLQQAKERAELRGQRERQKELRGEADWMLPALAKKLEKPAKKSKKNVSKHKSRSKSKSSKKSRKHRNSSSSSESSTSSSSSFSEDEKERKRRKKKSKRSRKESASEDEWVEAPPPLAADNVTKKEPPQRDDWMTSESLLLKTFSRERKEPAKPNEKAQQIDAYDPAKSGRELNPYWKSNGTGLPGFQKPQDDDERQAKPHSSSSAQGSSRGWRKPGAKAPSPPRRSRSRSKSATSSDEEEEEAVQQPKSRPSCLTDEQINELAGKAIKAELKGKKELAAELNQQLEAARKERAEFIASGESVRNANTRPAKSKASAEHVLLTKVDQSGNVRPLVQSGDPNESYGGRMGPKRGSKKVDTHVDGQRVRYFADDDRYDIKQMFEREKHATAAEVNLQYADIVSKHKNPNDDLDDIFADKVRKQISASDAEKREMQSAIREHEKLVATLDNCERCFDSAKLDKQLLVSLGDKIYLSLPWYMGLQSGHCILTTLQHVPCCTQLDEDAWEEISNFRKALTRMFAARRQDVVFYEIANKLHRRPHLSVHCIPIPASQGEMAPFYFKKAIEESEQEWCINKQLVSLRQKSLRAAIPKGLPYVWVHFGMDSGFAHVIEDEDRFPANFAQEILGGMLELNPNAWRKPRKEANPIGKVKSFAENWKKFDCTQN | binds |
| shep (protein, UniProt Q8MSV2 1-590) MHPRYSPAPPPQQQQQMGGPPHQQQGGGGGGGVSMRGPSNAQQLPPQIPRSQNYSNGSSSSAAAAPLTSRSAFPGAPLTASAVALKGALPQRPPAMTSPAAAAAGAALAAGAPYRGAASWTPQGYAPAAAAAAAAVAQQAAYRYTAPLPQPAYAAYTPHTATTPATTTVSFLSQPVDYYWYGQRVPTAASPSNTNSSSSSNTGSQSGTLSTSLSNTTNTNTNMGPNGTVQNQNQQGGEQLSKTNLYIRGLQQGTTDKDLVNMCAQYGTIISTKAILDKTTNKCKGYGFVDFEQPAFAECAVKGLQGKGVQAQMAKQQEQDPTNLYIANLPPHFKETDLEAMLSKYGQVVSTRILRDQQMNSKGVGFARMESREKCEQIIQMFNGNTIPGAKDPLLVKFADGGPKKKNLFKTPDPNARAWRDVSAEGIPVAYDPTMQQNGVSVNVGTPIGVPYSRFSAPQVGGYPVAGSQWIPGYMMTQVDDQTSYSPQYMQMAAAPPLGVTSYKPEAVNQVQPRGISMMVSGDTGVPYGTMMPQLATLQIGNSYISPTYPYYAPPPTIIPTMPMTDSEQASTAASPDEAYTQYPHQAAPK | binds |
| Fand (protein, UniProt A1Z9G2 1-883) MVTKTIKSLNLEINFEVEDVPYEEEILRNAYSVKHWLRYIDHKAKAPNNGVNMVYERALKELPGSYKIWHNYLRTRRKQVRGKIPTDPMYEEVNSAFERALVFMHKMPRIWMDYGAFMTSQCKITRTRHVFDRALRALPITQHGRIWPLYLQFVRRFEMPETALRVYRRYLKLFPEDTEEYVDYLQEADRLDEAAQQLAHIVDNEHFVSKHGKSNHQLWNELCDLISKNPHKVHSLNVDAIIRGGLRRYTDQLGHLWNSLADYYVRSGLFDRARDIYEEAIQTVTTVRDFTQVFDEYAQFEELSLNRRMEQVAANEAATEEDDIDVELRLSRFEYLMERRLLLLNSVLLRQNPHNVHEWHKRVTLYEDKPAEIISTYTEAVQTVQPKQAVGKLHTLWVEFAKFYEANGQVEDARVVFERGTEVEYVKVEDLAAVWCEWAEMELRQQQFEAALKLMQRATAMPKRKIAYYDDTETVQARLHRSLKVWSMYADLEESFGTFKTCKAVYERIIDLKICTPQIIINYGMFLEEHNYFEEAYRAYEKGISLFKWPNVYDIWNSYLTKFLERYGGTKLERARDLFEQCLDQCPPEHAKYFYLLYAKLEEEHGLARHAMSVYDRATSAVKEDEMFDMYNIFIKKAAEIYGLPRTREIYEKAIESLPEQNMRHMCVKFAELETKLGEVDRARAIYAHCSQVCDPRITADFWQTWKEFEVRHGNEDTMREMLRIKRSVQATYNTQVNMMAAQFLSTNNGAAADAGAGAGPDAMRLLEEKARQAAAESKQKPIEKAASNIMFVRGETQGGAKDKKDTVVNPDEIDIGDSDEDDEEEDDDEENEMTNENQASAAVTKTDEEGLVMKKLRFEQKAIPAKVFGSLKPSNQGDSDGE | binds |
| Stau (protein, UniProt P25159 1-1026) MQHNVHAARPAPHIRAAHHHSHSHAHMHLHPGMEQHLGPSLQQQQQPPPPPQQPPHRDLHARLNHHHLHAQQQQQQQTSSNQAGAVAAAGAAYHHGNINSNSGSNISSNSNQMQKIRQQHQHLSSSNGLLGNQPPGPPPQAFNPLAGNPAALAYNQLPPHPPHHMAAHLGSYAAPPPHYYMSQAKPAKYNHYGSNANSNSGSNNSNSNYAPKAILQNTYRNQKVVVPPVVQEVTPVPEPPVTTNNATTNSTSNSTVIASEPVTQEDTSQKPETRQEPASADDHVSTGNIDATGALSNEDTSSSGRGGKDKTPMCLVNELARYNKITHQYRLTEERGPAHCKTFTVTLMLGDEEYSADGFKIKKAQHLAASKAIEETMYKHPPPKIRRSEEGGPMRTHITPTVELNALAMKLGQRTFYLLDPTQIPPTDSIVPPEFAGGHLLTAPGPGMPQPPPPPAYALRQRLGNGFVPIPSQPMHPHFFHGPGQRPFPPKFPSRFALPPPLGAHVHHGPNGPFPSVPTPPSKITLFVGKQKFVGIGRTLQQAKHDAAARALQVLKTQAISASEEALEDSMDEGDKKSPISQVHEIGIKRNMTVHFKVLREEGPAHMKNFITACIVGSIVTEGEGNGKKVSKKRAAEKMLVELQKLPPLTPTKQTPLKRIKVKTPGKSGAAAREGSVVSGTDGPTQTGKPERRKRLNPPKDKLIDMDDADNPITKLIQLQQTRKEKEPIFELIAKNGNETARRREFVMEVSASGSTARGTGNSKKLAKRNAAQALFELLEAVQVTPTNETQSSEECSTSATMSAVTAPAVEATAEGKVPMVATPVGPMPGILILRQNKKPAKKRDQIVIVKSNVESKEEEANKEVAVAAEENSNNSANSGDSSNSSSGDSQATEAASESALNTSTGSNTSGVSSNSSNVGANTDGNNHAESKNNTESSSNSTSNTQSAGVHMKEQLLYLSKLLDFEVNFSDYPKGNHNEFLTIVTLSTHPPQICHGVGKSSEESQNDAASNALKILSKLGLNNAMK | binds |
| Endogenous CDK12 of S2 cells (enzyme, UniProt Q9VP22 1-1157) MHASSAAATALVEYSDVSSEDFSDQEAGDLDADAGKGAGNIKKPKPAPDNQFSKGRLDAKPDKEGYDNYRSRRAEDSSDPVAAGSRQTSSSEATNPREEPSQASNTSKDELWGREIYMSSDSIDTDELEAEMKRQKRKKQKKEKHKHKSKKKSKKRKKKRAKSYSSIDSMSDNDINALLDRRYTPPTAPSKSNERTVSAAPSSFTPHNLKESSSPATPPPVRRPNTNSNYYGESSLETANSALGSNLQVTVTNKQSISNRLRSPPPSSRSSGNGPRFGNSPRTPPPSHYSSSGGGGVGSGSVVRDSRSSRYVNSPHKEDVSAHHRSSHDHGYQGRYSGAGSSSHDTRKVKRLSPELDRYNHQPSTPPHKRRKFSDGREVGLGNFEHSRHHSGKYERYSRDRYSRRSSRSPSVQHSRSRQSPSGGLSSGSNAFRHGGSHKHKYGTTVSSTPSHTTRTSKRASGTGTSGDRYSRSPRTSSRYMESSPPSPVGASGSHHYHHRRSPRMRQRTRGDSRRRSPSSASSESSASRSRSPTSRDLKHKREEYIKKISETSLFAELVKDRHKRQKALKEIIERQEENSNSNSNGALTINDNSSSVDGNTPNAADGRSAPGSGTPAAASTTSNGLQALGSKPDLDLNNIPMPNKQNDSVVSNPASNADVPDSVAQLKQPLLVPPFSASKNNIKPKSLTSLPLPPGMNVLDLAGARSPSPGQKKESDEKNVTSSGSANKSVLNLPMPPVIPGSEELSGDDDVIDSPEDFDAPAVGTVHGHGGGPGTTRQRPVILNRRDSRNNVRDWGERCVDVFEMIAQIGEGTYGQVYKARDHHTNDMVALKKVRLEHEKEGFPITAVREIKILRQLNHRNIVNLHEIVTDKQDAVEFRKDKGSFYLVFEYMDHDLMGLLESGMVDFNEENNASIMKQLLDGLNYCHKKNFLHRDIKCSNILMNNRGKVKLADFGLARLYNADDRERPYTNKVITLWYRPPELLLGEERYGPSIDVWSCGCILGELFVKRPLFQANAEMAQLETISKICGSPVPAVWPNVIKLPLFHTLKQKKTHRRRLREDFEFMPAPALDLLDKMLDLDPDKRITAEDALRSPWLRKINPDEMPTPQLPTWQDCHELWSKKRRRQMREQQESLPPTVIASTKYQQHGATMVGDA | binds |

These are yes or no findings as the source states them, for the method shown. Binding seen in cells or lysates may run through a third protein. A yes stands for co-enrichment or nearness to the bait. Other partners may have been found.
